Measured values from paper PMC3520893.
These are yes or no findings as the source states them, for the method shown.

Amino acid sequences for entries named in this document (tags omitted).
UniProt P0DMV8: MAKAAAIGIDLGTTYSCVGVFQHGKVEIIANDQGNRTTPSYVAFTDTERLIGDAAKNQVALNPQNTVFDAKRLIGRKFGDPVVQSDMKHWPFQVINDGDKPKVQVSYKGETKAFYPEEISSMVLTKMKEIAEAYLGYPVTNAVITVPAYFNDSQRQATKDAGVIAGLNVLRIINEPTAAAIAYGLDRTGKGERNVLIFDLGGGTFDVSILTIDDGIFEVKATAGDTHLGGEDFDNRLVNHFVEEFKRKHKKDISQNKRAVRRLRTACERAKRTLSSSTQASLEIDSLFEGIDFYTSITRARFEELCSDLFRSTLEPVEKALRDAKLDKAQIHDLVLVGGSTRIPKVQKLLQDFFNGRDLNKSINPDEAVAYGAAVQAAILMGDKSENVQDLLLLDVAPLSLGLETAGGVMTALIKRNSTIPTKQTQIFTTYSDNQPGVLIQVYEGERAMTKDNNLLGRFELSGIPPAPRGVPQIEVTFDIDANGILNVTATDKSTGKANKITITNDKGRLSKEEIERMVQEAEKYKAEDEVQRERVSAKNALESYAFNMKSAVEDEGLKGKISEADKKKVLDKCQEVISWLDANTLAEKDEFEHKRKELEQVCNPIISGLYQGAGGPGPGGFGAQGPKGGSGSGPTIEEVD
UniProt Q00987: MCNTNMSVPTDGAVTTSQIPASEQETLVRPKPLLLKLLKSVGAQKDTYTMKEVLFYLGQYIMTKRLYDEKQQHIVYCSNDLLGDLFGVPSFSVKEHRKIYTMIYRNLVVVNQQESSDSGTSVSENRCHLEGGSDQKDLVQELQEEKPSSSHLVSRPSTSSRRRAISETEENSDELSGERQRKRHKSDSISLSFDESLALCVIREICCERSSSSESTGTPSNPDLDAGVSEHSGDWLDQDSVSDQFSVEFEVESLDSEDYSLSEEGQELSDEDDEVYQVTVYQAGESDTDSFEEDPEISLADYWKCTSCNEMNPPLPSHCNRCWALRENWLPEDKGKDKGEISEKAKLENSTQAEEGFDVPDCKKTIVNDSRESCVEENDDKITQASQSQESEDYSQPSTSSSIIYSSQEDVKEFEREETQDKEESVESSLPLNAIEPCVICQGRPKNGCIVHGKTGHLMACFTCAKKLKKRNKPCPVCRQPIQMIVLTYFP

Target: heat shock protein 70 (HSP70/HSPA1-A) (UniProt P0DMV8)
Assay: ELISA; about 400 ng of purified p53, chaperone or BSA coated on the plate (25 mM HEPES pH 7.4, 100 mM KCl, 25°C); increasing amounts of MDM2 added for 45 min in 25 mM HEPES pH 7.4, 100 mM KCl, 10 mM MgCl2, 2 mM DTT, 5% glycerol, 0.05% Triton X-100, 2 mg/ml BSA; MDM2 detected with H-221 or 4B2; both purified

binding: no binding
Substance: MDM2 (from UniProt Q00987 1-491) (enzyme)
